Results are given in words; binding and its absence hold for the method and conditions named. For some assays here: In cells and extracts the contact can be indirect. For some assays here: Sequences can lack the tags named with a protein. Some binding calls cover weakened binding; strength is not graded here.
T1: RSV A2 M2-1 protein fused to the NanoLUC 11S subunit (human respiratory syncytial virus, strain A2), P04545
T1 chain: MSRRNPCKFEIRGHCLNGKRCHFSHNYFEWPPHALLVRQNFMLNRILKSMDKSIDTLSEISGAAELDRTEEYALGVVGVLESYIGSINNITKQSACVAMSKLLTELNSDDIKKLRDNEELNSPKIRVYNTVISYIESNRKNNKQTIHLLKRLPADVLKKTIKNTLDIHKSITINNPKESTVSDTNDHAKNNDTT

Protein sequences, listed by entry. Tags and fused reporters are not part of them.
UniProt P12579, whole entry: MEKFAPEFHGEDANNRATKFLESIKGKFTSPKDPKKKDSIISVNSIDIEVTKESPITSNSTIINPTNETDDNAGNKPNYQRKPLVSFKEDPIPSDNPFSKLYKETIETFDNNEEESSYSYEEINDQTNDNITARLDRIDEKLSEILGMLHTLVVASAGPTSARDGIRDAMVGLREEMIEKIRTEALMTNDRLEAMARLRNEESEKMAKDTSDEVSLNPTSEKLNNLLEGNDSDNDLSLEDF

B1: recombinant RSV Matrix protein, wild type (protein, UniProt P0DOE7 1-256)
chain: METYVNKLHEGSTYTAAVQYNVLEKDDDPASLTIWVPMFQSSMPADLLIKELANVNILVKQISTPKGPSLRVMINSRSAVLAQMPSKFTICANVSLDERSKLAYDVTTPCEIKACSLTCLKSKNMLTTVKDLTMKTLNPTHDIIALCEFENIVTSKKVIIPTYLRSISVRNKDLNTLENITTTEFKNAITNAKIIPYSGLLLVITVTDNKGAFKYIKPQSQFIVDLGAYLEKESIYYVTTNWKHTATRFAIKPMED
B2: RSV A2 Matrix protein fused to the NanoLUC 114 subunit, P0DOE7 1-256 (protein)
chain: B1 chain

Experiments:
[1] = target: recombinant RSV Phosphoprotein, full-length (human respiratory syncytial virus (strain not stated for the bacterial construct)) (UniProt P12579); test: native gel or EMSA
[2] = target: T1, RSV A2 M2-1 protein fused to the …; test: split reporter; settings: remark: other sources report otherwise

| Binder | binding [1] | binding [2] |
| --- | --- | --- |
| B1 | binds |  |
| B2 |  | no binding |

Source: article doi:10.1101/2020.11.17.387951
